Source: PubChem BioAssay AID1487 (National Center for Advancing Translational Sciences (NCATS), 2009)
The list shows a part of the results. Further columns of the screen follow, without active or inactive calls. Compounds called inactive in the main read-out are mostly missing here. Potencies come from curve fits of mixed quality, noted in brackets.

Test: qHTS Assay for Modulators of Lamin A Splicing
Details: HeLa LMNA splicing GFP/RFP minigene ratio, 48 h
Summary of the method: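 S3 HeLa stable clones carrying a lamin A-EGFP splicing minigene plus DsRed2 were seeded at 600 cells/well in Opti-MEM with 2% FBS, pin-dosed and incubated 48 h at 37°C. Acumen cytometry (488 nm) gave the GFP/RFP total-intensity ratio.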

[1] = measured here: RFP viability control channel
[2] = measured here: GFP splicing reporter channel

SMILES	AC50 [1]	AC50 [2]
Cc1noc(C)c1COC(=O)c1cccc(S(=O)(=O)N2c3ccccc3CC2C)c1 (centres undefined)	14.1 µM [rising, partial curve]	
CC(C)Sc1ncnc2c1oc1ccccc12		5.62 µM [rising, single point]
CSC1=NC(C)(C)C=C(/C=C/c2ccc(Cl)cc2Cl)N1	15.8 µM [falling, single point]	
O=C(c1cc(NC(=O)C23CC4CC(CC(C4)C2)C3)cc(NC(=O)C23CC4CC(CC(C4)C2)C3)c1)N1CCCCC1	7.94 µM [rising, partial curve]	
CCOc1ccccc1Nc1ncnc2c1cnn2-c1ccccc1	35.5 µM [rising, single point]	
O=C(CCC(=O)NCCO)NCCO	0.251 µM [falling, full curve, poor fit]	
O=C(NCC(c1cccs1)N1CCOCC1)c1ccc(Cl)c([N+](=O)[O-])c1 (centres undefined)	11.2 µM [rising, partial curve]	
O=C(CCCOc1ccccc1)Nc1ccc(Cl)cn1	5.01 µM [falling, partial curve, poor fit]	
COc1ccc(Cl)cc1NC(=S)NNC(=O)CC(C)C		0.0282 µM [rising, full curve, poor fit]
O=C(Nc1nc(-c2cccnc2)cs1)c1ccccc1[N+](=O)[O-]	0.0447 µM [falling, full curve, poor fit]	
CCCCCOC(=O)C1=C(C)Nc2nnnn2C1c1ccccc1Cl (centres undefined)	31.6 µM [rising, single point]	14.1 µM [rising, single point]
O=C(Nc1ccc(Cl)c(Cl)c1)c1ccncc1	20 µM [rising, single point]	
CS(=O)(=O)Nc1cccc(-c2ccc3ncnc(NC4CC4)c3c2)c1	17.8 µM [falling, partial curve]	10 µM [falling, partial curve]
Cc1ccc2cc(N)ccc2n1	0.00447 µM [falling, full curve, poor fit]	
CCCC(=O)Nc1ccccc1-c1nnn(CC(=O)Nc2ccc(OC)cc2)n1	31.6 µM [rising, single point]	22.4 µM [rising, single point]
CCCCc1nc2n[nH]c(N)c2c2c1CCCC2	15.8 µM [falling, partial curve, poor fit]	7.94 µM [falling, partial curve]

SMILES	AC50 [1]	AC50 [2]
CC(=O)Nc1ccc(NC(=O)COC(=O)c2c3c(nc4ccccc24)CCN(Cc2ccccc2)C3)cc1	10 µM [rising, partial curve]	
O=C(COc1cccc2cccnc12)N/N=C/c1ccc(O)cc1		0.02 µM [falling, full curve, poor fit]
O=C(COc1ccccc1)Nc1ccccc1OCc1cc(=O)n2ccccc2n1		0.501 µM [rising, full curve, poor fit]
COc1ccc(-n2c(SCC(=O)c3c(N)n(C)c(=O)n(C)c3=O)nc3ccccc32)cc1		4.47 µM [rising, single point]
Cc1ccc(C(=O)c2cc([N+](=O)[O-])ccc2N2CCCCC2)cc1		25.1 µM [falling, single point]
O=C1C2C3C=CC(C4CC34)C2C(=O)N1/N=C/c1ccc(-c2cccc([N+](=O)[O-])c2)o1 (centres undefined)	14.1 µM [rising, single point]	
Cc1cccc(NC(c2ccc(O)cc2)c2ccc3ccc(C)nc3c2O)n1 (centres undefined)	35.5 µM [rising, single point]	
COc1ccc(-c2noc(CCC(=O)Nc3cc(Cl)c(OC)cc3OC)n2)cc1	35.5 µM [rising, single point]	
COc1cc(NC(=O)CSc2nc3nc(C)c(Cc4ccc(C)cc4)c(C)n3n2)cc(OC)c1OC	1.26 µM [falling, full curve, poor fit]	8.91 µM [falling, partial curve, poor fit]
CCOc1ccc(Nc2nc3cc(S(=O)(=O)N(CC)CC)ccc3o2)cc1	17.8 µM [rising, single point]	12.6 µM [rising, single point]
CC(C)[C@H](NS(=O)(=O)c1cccc(Cl)c1)C(=O)OCC(=O)N1CCN(c2ccccc2)CC1	14.1 µM [rising, partial curve, poor fit]	
CC(C)C(c1nnnn1C(C)(C)C)N1CCN(c2cccc(Cl)c2)CC1 (centres undefined)	35.5 µM [rising, single point]	35.5 µM [rising, single point]
CC(C)C(=O)OC/C(O)=C(\C#N)c1nc2ccccc2[nH]1		0.0891 µM [rising, full curve]
CCOC(=O)c1c(NC(=O)C2COc3ccccc3O2)sc2c1CC(C)(C)NC2(C)C (centres undefined)	6.31 µM [rising, full curve, poor fit]	
CCCCCCCCC(=O)N/N=C/c1ccccn1		12.6 µM [falling, single point]
O=c1cc(Cn2nnc(-c3ccc(Cl)cc3)n2)nc2sccn12	35.5 µM [rising, single point]	

Look-ups from above:
AC50 [1], `Cc1noc(C)c1COC(=O)c1cccc(S(=O)(=O)N2c3ccccc3CC2C)c1` (centres undefined) reads 14.1 µM [rising, partial curve]
AC50 [1], `CCCC(=O)Nc1ccccc1-c1nnn(CC(=O)Nc2ccc(OC)cc2)n1` reads 31.6 µM [rising, single point]
